Source: paper PMC3702609

Sequences of proteins named here, by UniProt entry; tags and fusion partners are left off. A change or cut given only in a name is not applied to a line headed by its entry.
UniProt P22317: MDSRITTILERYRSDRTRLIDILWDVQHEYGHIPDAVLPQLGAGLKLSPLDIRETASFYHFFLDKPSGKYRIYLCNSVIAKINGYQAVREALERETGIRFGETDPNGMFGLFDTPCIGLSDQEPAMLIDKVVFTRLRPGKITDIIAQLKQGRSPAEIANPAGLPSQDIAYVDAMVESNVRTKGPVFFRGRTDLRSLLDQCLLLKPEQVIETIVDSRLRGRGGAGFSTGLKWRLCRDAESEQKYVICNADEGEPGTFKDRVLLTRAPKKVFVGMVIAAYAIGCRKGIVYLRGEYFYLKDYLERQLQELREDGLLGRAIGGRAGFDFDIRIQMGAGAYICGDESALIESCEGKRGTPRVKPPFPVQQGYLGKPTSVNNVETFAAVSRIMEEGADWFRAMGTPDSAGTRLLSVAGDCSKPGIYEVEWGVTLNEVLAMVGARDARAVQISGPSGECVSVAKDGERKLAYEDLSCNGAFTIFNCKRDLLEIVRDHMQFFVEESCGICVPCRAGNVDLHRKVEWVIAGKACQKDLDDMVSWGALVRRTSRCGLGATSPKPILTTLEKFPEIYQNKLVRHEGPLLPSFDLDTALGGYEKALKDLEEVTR
UniProt P22320: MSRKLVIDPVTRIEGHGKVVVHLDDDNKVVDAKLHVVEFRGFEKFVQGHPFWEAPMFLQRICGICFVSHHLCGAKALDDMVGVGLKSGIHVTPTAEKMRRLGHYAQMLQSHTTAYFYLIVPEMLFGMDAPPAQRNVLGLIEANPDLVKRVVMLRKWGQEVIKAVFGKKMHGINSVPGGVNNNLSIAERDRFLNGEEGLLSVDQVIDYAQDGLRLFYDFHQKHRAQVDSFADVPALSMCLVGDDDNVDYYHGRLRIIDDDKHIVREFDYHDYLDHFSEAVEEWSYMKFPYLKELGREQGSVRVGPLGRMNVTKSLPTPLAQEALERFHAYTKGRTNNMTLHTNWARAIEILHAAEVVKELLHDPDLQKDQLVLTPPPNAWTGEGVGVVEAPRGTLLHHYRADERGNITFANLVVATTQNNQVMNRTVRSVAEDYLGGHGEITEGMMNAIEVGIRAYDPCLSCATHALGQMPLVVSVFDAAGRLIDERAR

Columns and labels:
[1] = biological target: HoxF, diaphorase large subunit of the NAD+-reducing soluble [NiFe]-hydrogenase (SH), N-terminally StrepII-tagged (Cupriavidus necator H16) (UniProt P22317); assay: pull-down; Strep-Tactin Superflow affinity chromatography of the soluble extract of E. coli co-expressing the SH subunits (50 mM KPi pH 7.0, elution with 2.5 mM desthiobiotin), then Superdex 200 HR 10/300 gel filtration; SDS-PAGE; cells harvested 36-40 h after inoculation
[2] = biological target: T1, HoxI, diaphorase-associated subunit of the soluble [NiFe]-hydrogenase (SH) with NADPH activation site, N-terminally StrepII-tagged (Cupriavidus necator H16) (UniProt Q79IN9); assay: as above
T1 sequence: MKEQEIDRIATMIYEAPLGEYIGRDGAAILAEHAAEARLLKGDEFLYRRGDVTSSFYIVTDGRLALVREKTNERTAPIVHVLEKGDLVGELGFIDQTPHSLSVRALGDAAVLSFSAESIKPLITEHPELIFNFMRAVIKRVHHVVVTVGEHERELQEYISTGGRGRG

“HoxH, hydrogenase large subunit of the soluble [NiFe]-hydrogenase (SH) (from UniProt P22320)” was tested, and the binding [1] was “binds” and the binding [2] was “binds”.

These are yes or no findings as the source states them, for the method shown. In cells and extracts the contact can be indirect. A result given as binding can be weak or reduced; the word gives no strength. For some assays here: Tags and fused reporters may be left off the sequences shown.
